These are yes or no findings as the source states them, for the method shown. Binding seen in cells or lysates may run through a third protein. These calls come from enrichment with a bait or labelling near it, and not all partners need be listed. For some of these results: No binding means not detected with the bait. For some of these results: Sequences can lack the tags named with a protein.

The target of one experiment is T1, FLAG-tagged YbeY (human) (UniProt P58557).
T1 sequence: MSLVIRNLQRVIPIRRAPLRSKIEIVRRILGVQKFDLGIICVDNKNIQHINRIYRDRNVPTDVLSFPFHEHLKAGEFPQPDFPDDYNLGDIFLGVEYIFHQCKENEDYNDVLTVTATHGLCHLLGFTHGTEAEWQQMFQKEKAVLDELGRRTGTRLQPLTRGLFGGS
As to the kind of experiment: affinity purification with mass spectrometry; SILAC, reciprocal labelling; YbeY-FLAG in doxycycline-induced HEK293T cells against uninduced cells, mitochondria isolated and lysed, FLAG M2 affinity gel, elution with FLAG peptide, LC-MS/MS.

In experiment [1] the target is T2, FLAG-tagged YbeY (human), P58557.
T2 chain: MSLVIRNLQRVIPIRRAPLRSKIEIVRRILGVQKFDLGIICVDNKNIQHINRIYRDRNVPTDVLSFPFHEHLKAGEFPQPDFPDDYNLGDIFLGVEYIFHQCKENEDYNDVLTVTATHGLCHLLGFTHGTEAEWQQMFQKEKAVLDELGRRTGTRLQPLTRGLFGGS
The experiment is described as above. The note with it: remark: other sources report otherwise.

Experiment [2] addresses FLAG/Strep2-tagged p32/C1QBP (UniProt Q07021). As to the kind of experiment: affinity purification with mass spectrometry; non-SILAC; FLAG/Strep2-tagged bait in induced cells, mitochondria isolated and lysed, FLAG M2 affinity gel, elution with FLAG peptide, eluate on SDS-PAGE, visible bands excised for mass spectrometry.

As for mL43 (human (endogenous in HEK293T)), in the experiment with FLAG-tagged YbeY (human), the binding result is reported as “binds weakly”. Turning to uS11m (human (endogenous in HEK293T)), the binding result in the experiment with FLAG-tagged YbeY (human) is reported as “binds”.

B1: p32/C1QBP, Q07021 74-282 (protein)
chain: LHTDGDKAFVDFLSDEIKEERKIQKHKTLPKMSGGWELELNGTEAKLVRKVAGEKITVTFNINNSIPPTFDGEEEPSQGQKVEEQEPELTSTPNFVVEVIKNDDGKKALVLDCHYPEDEVGQEDEAESDIFSIREVSFQSTGESEWKDTNYTLNTDSLDWALYDHLMDFLADRGVDNTFADELVELSTALEHQEYITFLEDLKSFVKSQ
As to B1, the binding result in experiment [1] is recorded as “no binding”.

B2: endogenous YbeY (protein, UniProt P58557 1-167)
chain: MSLVIRNLQRVIPIRRAPLRSKIEIVRRILGVQKFDLGIICVDNKNIQHINRIYRDRNVPTDVLSFPFHEHLKAGEFPQPDFPDDYNLGDIFLGVEYIFHQCKENEDYNDVLTVTATHGLCHLLGFTHGTEAEWQQMFQKEKAVLDELGRRTGTRLQPLTRGLFGGS
Consider B2, for which, in experiment [2], the binding result is reported as “no binding”.

Source of the values: publication PMC8191802.
